No constants are given. Whether binding was seen depends on the method and setting. Binding seen in cells or lysates may run through a third protein. Some results given as binding are weak or reduced against the parent protein; the word gives no strength.
How the values were obtained:
[1] = biological target: Signal transducer and activator of transcription 3 (STAT3) (human (endogenous in MDA-MB-231 and MCF7-HER2)) (UniProt P40763); assay: co-IP; STAT3 monoclonal antibody and protein A agarose; cytoplasmic extracts of MDA-MB-231 and MCF7-HER2 cells; western blot of the immuno-pellets
[2] = biological target: Signal transducer and activator of transcription 3 (STAT3) (human (endogenous in MDA-MB-231 and MCF7-HER2)) (UniProt P40763); assay: co-IP; STAT3 monoclonal antibody and protein A agarose; nuclear extracts of MDA-MB-231 and MCF7-HER2 cells; western blot of the immuno-pellets

Sequences of proteins named here, by UniProt entry; tags and fusion partners are left off. Residues count along the entry.
UniProt P40763: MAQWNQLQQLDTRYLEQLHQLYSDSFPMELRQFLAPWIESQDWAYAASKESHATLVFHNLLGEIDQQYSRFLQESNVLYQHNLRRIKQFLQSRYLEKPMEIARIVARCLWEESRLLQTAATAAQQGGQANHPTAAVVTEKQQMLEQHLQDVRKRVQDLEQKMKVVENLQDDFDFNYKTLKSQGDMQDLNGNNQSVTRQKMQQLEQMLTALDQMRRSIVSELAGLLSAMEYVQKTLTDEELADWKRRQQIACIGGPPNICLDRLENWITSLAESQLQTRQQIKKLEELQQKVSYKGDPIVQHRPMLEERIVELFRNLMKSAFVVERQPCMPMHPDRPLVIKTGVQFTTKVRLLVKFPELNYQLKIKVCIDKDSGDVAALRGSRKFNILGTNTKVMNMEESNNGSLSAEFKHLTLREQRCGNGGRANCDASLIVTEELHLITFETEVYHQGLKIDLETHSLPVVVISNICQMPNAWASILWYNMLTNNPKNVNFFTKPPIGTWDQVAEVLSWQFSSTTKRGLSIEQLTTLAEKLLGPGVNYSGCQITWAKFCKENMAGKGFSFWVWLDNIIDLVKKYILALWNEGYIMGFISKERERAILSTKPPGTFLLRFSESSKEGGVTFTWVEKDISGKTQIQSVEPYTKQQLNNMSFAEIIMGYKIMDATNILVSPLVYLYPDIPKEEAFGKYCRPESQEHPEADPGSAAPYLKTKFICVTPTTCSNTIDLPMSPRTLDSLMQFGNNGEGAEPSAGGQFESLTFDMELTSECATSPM
UniProt P16070, residues 21-742: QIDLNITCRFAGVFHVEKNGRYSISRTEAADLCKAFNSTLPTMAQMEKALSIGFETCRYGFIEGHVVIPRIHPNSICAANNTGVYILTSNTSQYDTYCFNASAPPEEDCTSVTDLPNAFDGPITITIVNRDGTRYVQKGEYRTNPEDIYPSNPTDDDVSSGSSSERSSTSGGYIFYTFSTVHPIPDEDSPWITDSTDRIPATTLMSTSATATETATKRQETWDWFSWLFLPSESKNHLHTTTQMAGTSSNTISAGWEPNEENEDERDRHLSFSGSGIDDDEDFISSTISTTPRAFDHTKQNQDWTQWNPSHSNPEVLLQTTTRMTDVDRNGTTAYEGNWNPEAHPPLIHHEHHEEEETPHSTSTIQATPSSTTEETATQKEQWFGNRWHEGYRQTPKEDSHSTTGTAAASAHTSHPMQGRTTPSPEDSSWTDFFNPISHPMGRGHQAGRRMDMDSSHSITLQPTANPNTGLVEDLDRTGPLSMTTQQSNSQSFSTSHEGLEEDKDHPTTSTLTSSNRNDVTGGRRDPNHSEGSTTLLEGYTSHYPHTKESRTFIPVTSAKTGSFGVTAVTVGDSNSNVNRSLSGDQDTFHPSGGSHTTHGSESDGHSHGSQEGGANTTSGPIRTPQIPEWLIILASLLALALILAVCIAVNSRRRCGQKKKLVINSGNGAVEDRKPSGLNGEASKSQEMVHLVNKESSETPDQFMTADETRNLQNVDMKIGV

## CD44 (from UniProt P16070 21-742) (receptor)
[1]
  binding: binds
[2]
  binding: no binding (condition: in nuclear extracts)

Reference: PMC3875492
